Results published in PubChem BioAssay AID720563 (Broad Institute, 2013).
The source calls these results inconclusive, neither active nor inactive.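 The calls were made as follows: active = compounds whose fitted AC50 lies at or below twice their top valid test dose; inconclusive = flat curve between -70 and -30 percent, or unreliable curve fit; inactive = the rest.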

Molecular target: Transforming acidic coiled-coil-containing protein 3 (Homo sapiens) (UniProt Q9Y6A5)
Assay: potency against ARNT PAS-B/TACC3 association – biochemical, AlphaScreen, dry powder, dose response (AID 720563)
Settings: AlphaScreen His-ARNT PAS-B/GST-TACC3 binding, luminescence; at 68 µM (top of the series)

For `O=C(Nc1nc(-c2ccncc2)cs1)c1ccco1`, the activity change, negative = inhibition was inconclusive: -43.8%.
